Laboratory results: PubChem BioAssay AID1159578 (Peter MacCallum Cancer Centre, 2015)
The deposit covers about 18,000 reagents; below is a part drawn at random. About 1,030 of them (5.7%) count as active. 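Inactive calls also include pools with fewer than 3300 nuclei, whose migration was not assessed.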 Raw values are not corrected between plates. Unmarked entries are inactive. Not all columns of the deposit are shown. No sequences are given here.

Purpose: 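Genome-wide hunt for genes controlling movement of lymphatic endothelial cells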 (primary screen)
System: human lymphatic endothelial cells
Knock-down reagent: siRNA pool against human genes, 40 nM
Timing: 48 h after transfection
Detection: 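High-content imaging of dye-stained cells in a scratch assay measures filled wound area and nuclei per well; duplicate means given as ratio to mock and robust z-score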
Direction: migration robust z-score: higher = faster migration into the scratch; nuclei per well: higher = more cells in the well
Active means: 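Pools averaging fewer than 3300 nuclei are never called; remaining pools count as changed when migration robust z lies outside -2 to 2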
Calls: active = migration changed; inactive = no migration change, or too few cells

target gene | migration robust z-score | nuclei per well, duplicate mean
BIRC2 (GeneID 329) | 1.09 | 4901
PCDHGB1 (GeneID 56104) | -0.16 | 6136
DLX2 (GeneID 1746) | 0.08 | 6549
EIF2S3 (GeneID 1968) | -0.46 | 7582
DEFB125 (GeneID 245938) | 0.1 | 5810
MMP14 (GeneID 4323) | 0.52 | 5200
RUNX1T1 (GeneID 862) | -1.06 | 4759
SMC4 (GeneID 10051) | 0.57 | 3926
CDKN2B (GeneID 1030) | 0.86 | 6524
FOXD4L1 (GeneID 200350) | -0.38 | 5201
ANKRD17 (GeneID 26057) | -0.89 | 6158
ANKRD12 (GeneID 23253) | 0.4 | 6664
LRRTM1 (GeneID 347730) | -0.42 | 5266
EDNRA (GeneID 1909) | 0.5 | 6794
CAT (GeneID 847) | 1.04 | 6872
RTN4IP1 (GeneID 84816) | -3.4 | 2676
FRMD8 (GeneID 83786) | 0.38 | 6336
PHEX (GeneID 5251) | 0.78 | 5816
RAB40B (GeneID 10966) | -0.16 | 4936
NKRF (GeneID 55922) | -0.41 | 6970
NAA20 (GeneID 51126) | 0.57 | 4989
PEX11B (GeneID 8799) | -0.62 | 5507
CYP2A6 (GeneID 1548) | 0.9 | 7277
THRAP3 (GeneID 9967) | -0.13 | 6752
RHBDL1 (GeneID 9028) | 1.14 | 5513
C1QTNF3 (GeneID 114899) | 1.8 | 6152
MGMT (GeneID 4255) | -0.39 | 7699
UGCG (GeneID 7357) | 0.06 | 6149
KHDRBS3 (GeneID 10656) | -0.82 | 5954
FPGT (GeneID 8790) | 0.49 | 5974
KRTAP10-4 (GeneID 386672) | 0.28 | 5498
KDM4C (GeneID 23081) | -0.3 | 5615
CATSPER3 (GeneID 347732) | -0.72 | 5656
PYROXD1 (GeneID 79912) | -0.38 | 5863
TESK2 (GeneID 10420) | -2 | 3795
SHCBP1 (GeneID 79801) | -0.33 | 6338
ZNRD2 (GeneID 10534) | 0.28 | 5726
ATP13A1 (GeneID 57130) | -0.83 | 6553
AP1G2 (GeneID 8906) | -0.08 | 5520
CNDP1 (GeneID 84735) | -0.8 | 5505
SLC1A1 (GeneID 6505) | 0.94 | 5424
RBM11 (GeneID 54033) | -1.04 | 5350
BDNF (GeneID 627) | 0.13 | 6392
CCNK (GeneID 8812) | 0.32 | 5787
SLC39A10 (GeneID 57181) | -1.96 | 4490
IST1 (GeneID 9798) | -0.02 | 5606
HS3ST3A1 (GeneID 9955) | -0.96 | 5868
TMEM185A (GeneID 84548) | 0.43 | 4326
H3C3 (GeneID 8352) | 1.52 | 5890
NME4 (GeneID 4833) | -1.04 | 5276
ATG12 (GeneID 9140) | -7.94 (active) | 3834
CLNS1A (GeneID 1207) | -0.68 | 5658
MAPRE1 (GeneID 22919) | 1.1 | 6144
GNAT2 (GeneID 2780) | -1.25 | 4920
ITPA (GeneID 3704) | -0.64 | 6247
TBC1D9 (GeneID 23158) | -0.26 | 5616
DBX2 (GeneID 440097) | -0.86 | 4570

Reagents above marked active, once more:
target gene | migration robust z-score | nuclei per well, duplicate mean
ATG12 (GeneID 9140) | -7.94 (active) | 3834
